# Results are given in words; binding and its absence hold for the method and conditions named. Some results given as binding are weak or reduced against the parent protein; the word gives no strength.
# By UniProt entry, the sequences of proteins in these tests, tags left out. Where a name states a change or a piece, a line headed by the entry shows the natural chain unless it says otherwise.
# UniProt P0C0L4: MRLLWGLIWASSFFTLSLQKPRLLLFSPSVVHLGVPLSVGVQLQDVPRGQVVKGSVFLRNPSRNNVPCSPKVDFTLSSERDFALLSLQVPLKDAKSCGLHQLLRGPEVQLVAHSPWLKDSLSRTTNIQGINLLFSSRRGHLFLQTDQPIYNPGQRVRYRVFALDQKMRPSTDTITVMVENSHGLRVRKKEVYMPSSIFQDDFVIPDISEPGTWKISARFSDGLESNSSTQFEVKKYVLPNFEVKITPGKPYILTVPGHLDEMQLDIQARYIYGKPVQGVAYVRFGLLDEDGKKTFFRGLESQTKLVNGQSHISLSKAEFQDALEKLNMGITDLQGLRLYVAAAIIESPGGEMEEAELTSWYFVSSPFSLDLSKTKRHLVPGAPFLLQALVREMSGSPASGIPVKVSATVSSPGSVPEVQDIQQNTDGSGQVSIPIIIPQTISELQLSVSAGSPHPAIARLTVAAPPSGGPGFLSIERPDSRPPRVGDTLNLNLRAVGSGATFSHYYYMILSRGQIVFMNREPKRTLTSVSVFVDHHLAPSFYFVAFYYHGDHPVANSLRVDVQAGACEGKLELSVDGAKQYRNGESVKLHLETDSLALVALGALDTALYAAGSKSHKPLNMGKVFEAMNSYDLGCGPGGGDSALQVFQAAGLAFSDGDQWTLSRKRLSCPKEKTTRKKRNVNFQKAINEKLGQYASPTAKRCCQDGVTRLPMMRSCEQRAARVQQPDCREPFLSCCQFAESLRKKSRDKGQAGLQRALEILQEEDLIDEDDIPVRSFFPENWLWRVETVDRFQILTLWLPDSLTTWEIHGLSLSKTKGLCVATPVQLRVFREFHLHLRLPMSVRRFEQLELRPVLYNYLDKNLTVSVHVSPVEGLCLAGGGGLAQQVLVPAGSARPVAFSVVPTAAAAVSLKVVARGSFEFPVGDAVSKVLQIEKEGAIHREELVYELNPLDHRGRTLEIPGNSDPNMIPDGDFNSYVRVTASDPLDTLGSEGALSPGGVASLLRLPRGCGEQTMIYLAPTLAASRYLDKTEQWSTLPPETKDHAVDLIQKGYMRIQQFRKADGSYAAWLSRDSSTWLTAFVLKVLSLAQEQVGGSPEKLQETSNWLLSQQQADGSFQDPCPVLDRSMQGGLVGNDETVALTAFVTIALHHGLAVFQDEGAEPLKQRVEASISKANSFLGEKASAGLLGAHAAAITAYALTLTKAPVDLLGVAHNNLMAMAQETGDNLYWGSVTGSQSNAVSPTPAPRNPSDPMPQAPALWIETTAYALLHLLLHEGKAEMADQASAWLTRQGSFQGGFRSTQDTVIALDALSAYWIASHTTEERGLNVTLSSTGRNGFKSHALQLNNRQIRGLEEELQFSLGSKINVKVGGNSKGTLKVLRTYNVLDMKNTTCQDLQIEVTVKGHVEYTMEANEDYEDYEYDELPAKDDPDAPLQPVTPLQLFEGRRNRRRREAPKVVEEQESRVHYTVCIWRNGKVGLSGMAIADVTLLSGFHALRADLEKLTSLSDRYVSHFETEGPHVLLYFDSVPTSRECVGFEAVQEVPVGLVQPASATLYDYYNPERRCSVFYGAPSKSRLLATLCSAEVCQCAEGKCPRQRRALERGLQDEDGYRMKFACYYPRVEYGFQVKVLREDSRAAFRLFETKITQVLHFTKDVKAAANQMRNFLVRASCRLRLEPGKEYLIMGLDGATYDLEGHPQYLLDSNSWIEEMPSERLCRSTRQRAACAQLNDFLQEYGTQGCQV
# UniProt Q9UKJ1: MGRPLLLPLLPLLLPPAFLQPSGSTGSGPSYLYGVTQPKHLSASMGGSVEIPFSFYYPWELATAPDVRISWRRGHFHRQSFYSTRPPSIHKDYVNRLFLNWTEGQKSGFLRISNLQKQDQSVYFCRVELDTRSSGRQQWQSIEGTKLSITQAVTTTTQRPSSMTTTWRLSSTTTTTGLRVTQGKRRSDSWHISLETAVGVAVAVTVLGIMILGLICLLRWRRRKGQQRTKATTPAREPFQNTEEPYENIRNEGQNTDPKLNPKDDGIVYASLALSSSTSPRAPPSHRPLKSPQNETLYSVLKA
# Experiments:
# [1] = target: Full length C4A fused with C-terminal gD tag and GPI anchor, expressed on transfected 293T cells (human; Human alphaherpesvirus 1) (UniProt P0C0L4); assay: flow cytometry (FACS), soluble mIgG2a-tagged PILRA on ligand-transfected 293T cells
# [2] = target: Full length C4A fused with C-terminal gD tag and GPI anchor, expressed on transfected 293T cells (human; Human alphaherpesvirus 1) (UniProt P0C0L4); assay: flow cytometry: soluble mIgG2a-tagged G78 PILRA on 293T cells transfected with full length C4A-gD-GPI, FITC anti-mIgG2a; MFI as fold of vector control
# [3] = target: Full length C4A fused with C-terminal gD tag and GPI anchor, expressed on transfected 293T cells (human; Human alphaherpesvirus 1) (UniProt P0C0L4); assay: flow cytometry (FACS), soluble mIgG2a-tagged PILRA on C4A-transfected 293T cells
# [4] = target: Full length C4A fused with C-terminal gD tag and GPI anchor, expressed on transfected 293T cells (human; Human alphaherpesvirus 1) (UniProt P0C0L4); assay: flow cytometry: soluble mIgG2a-tagged PILRA variant on C4A-transfected 293T cells, FITC anti-mIgG2a; MFI as % of G78 (= 100 %)
binding [1],binding [2],binding [3],binding [4],Substance
binds,binds,–,–,PILRA G78 variant extracellular domain fused to murine IgG2a Fc (from UniProt Q9UKJ1 20-196) (Fc fusion)
–,–,binds,binds,PILRA R78 variant extracellular domain fused to murine IgG2a Fc (from UniProt Q9UKJ1 20-196) (Fc fusion)
–,–,–,binds,PILRA G80 variant extracellular domain fused to murine IgG2a Fc (from UniProt Q9UKJ1 20-196) (Fc fusion)
